Source: patent publication US11230581B2, “Peptides and combination of peptides for use in immunotherapy against ovarian cancer and other cancers” (Immatics Biotechnologies GmbH, priority 2015, dated 2022)

System: ovarian cancer samples
Experiment: Relative LC-MS quantitation of HLA-presented peptides: presentation and over-presentation on ovarian cancer vs a panel of normal tissues (presentation score)
Set-up: species or system human; key: +++: very highly over-presented on tumors compared to a panel of normal tissues; ++: highly over-presented on tumors compared to a panel of normal tissues; +: over-presented on tumors compared to a panel of normal tissues
Settings: over-presentation on tumors compared to a panel of normal tissues

Substance | Peptide Presentation (presentation score)
114 (SLVGEPILQNV; listed as Homo sapiens) [compound 114] | +++
122 (FLLAEDDIYL; listed as Homo sapiens) [compound 122] | +++
130 (FLWNGEDSALL; listed as Homo sapiens) [compound 130] | +++
136 (YLADPSNLFVV; listed as Homo sapiens) [compound 136] | +++
156 (AISQGITLPSL; listed as Homo sapiens) [compound 156] | +++
158 (KLFDVDEDGYI; listed as Homo sapiens) [compound 158] | +++
162 (YQQAQVPSV; listed as Homo sapiens) [compound 162] | +++
165 (SLLDEIRAV; listed as Homo sapiens) [compound 165] | +++
168 (KILDADIQL; listed as Homo sapiens) [compound 168] | +++
181 (LLWAGTAFQV; listed as Homo sapiens) [compound 181] | +++
189 (ALQRKLPYV; listed as Homo sapiens) [compound 189] | +++
196 (YLYSVEIKL; listed as Homo sapiens) [compound 196] | +++
202 (ALLDQQGSRWTL; listed as Homo sapiens) [compound 202] | +++
203 (VLLEDAHSHTL; listed as Homo sapiens) [compound 203] | +++
215 (QLINHLHAV; listed as Homo sapiens) [compound 215] | +++
219 (KLSDIGITV; listed as Homo sapiens) [compound 219] | +++
220 (LLQKFVPEI; listed as Homo sapiens) [compound 220] | +++
221 (ALYEEGLLL; listed as Homo sapiens) [compound 221] | +++
223 (ALLENIALYL; listed as Homo sapiens) [compound 223] | +++
225 (SLLKVLPAL; listed as Homo sapiens) [compound 225] | +++
231 (FLSPQQPPLLL; listed as Homo sapiens) [compound 231] | +++
232 (ALLEAQDVELYL; listed as Homo sapiens) [compound 232] | +++
239 (AAFAGKLLSV; listed as Homo sapiens) [compound 239] | +++
245 (SMIDDLLGV; listed as Homo sapiens) [compound 245] | +++
254 (TLLAFIMEL; listed as Homo sapiens) [compound 254] | +++
368 (ILLEEVSPEL; listed as Homo sapiens) [compound 368] | +
442 (GLLGGGGVLGV; listed as Homo sapiens) [compound 442] | +++
460 (AMLEKNYKL; listed as Homo sapiens) [compound 460] | +++
462 (KLAKQPETV; listed as Homo sapiens) [compound 462] | +++
